Among the data in PubChem BioAssay AID720630 (Broad Institute, 2013) are max activity values, retold here.

The other results are listed elsewhere or left out. Further columns of the screen follow, without active or inactive calls. Most of these compounds were active or inconclusive in the main read-out, so they are no random draw.

The assay can be described thus: HUVEC apoptotic caspase activation, HRAS target ID – cell-based, multiple timepoints, luminescence, dry powder, mechanism study for HRAS target identification, dose response (AID 720630). The conditions noted are these: HUVEC apoptosis, caspase-3/7 luminescence.
[1] abbreviates: measured here: max caspase activation timepoint 2, at 35 µM, test 2, stronger effect = higher value.

Turning to `COc1cccc2c1C(=O)c1c(O)c3c(c(O)c1C2=O)C[C@@](O)(C(=O)CO)C[C@@H]3OC1C[C@H](N)[C@H](O)[C@H](C)O1` (stereo partly drawn), the max activity by setting is: (measured here: max caspase activation timepoint 1, at 0.0001 µM, test 1, stronger effect = higher value) -26.3%; (measured here: max caspase activation timepoint 2, at 0.016 µM, test 2, stronger effect = higher value) -30.8%; (measured here: max caspase activation timepoint 3, at 1 µM, test 3, stronger effect = higher value) 103%.

`Cc1onc(C(=O)N2CCN(C(c3ccc(Cl)cc3)c3ccc(OCCOCCOCCNC(=O)OC(C)(C)C)cc3)CC2)c1[N+](=O)[O-]` (stereo not drawn): the max activity was -28.2% (measured here: max caspase activation timepoint 1, at 0.0021 µM, test 1, stronger effect = higher value) and -18% (measured here: max caspase activation timepoint 2, at 8 µM, test 2, stronger effect = higher value).

Turning to `CC(C)(C)OC(=O)NCCOCCOCCOc1ccc(N(C(=O)CCl)C(C(=O)NCCc2ccccc2)c2cccs2)cc1Cl` (stereo not drawn), the max activity (measured here: max caspase activation timepoint 1, at 8 µM, test 1, stronger effect = higher value) worked out at 22.4% and the max activity (measured here: max caspase activation timepoint 2, at 2.1 µM, test 2, stronger effect = higher value) is -28.9%.

On to `O=C(NCCOCCOCCOc1ccc(N(C(=O)CCl)C(C(=O)NCCc2ccccc2)c2cccs2)cc1Cl)c1ccc(COC2C#CCCCCC2)cc1` (stereo not drawn), for which the max activity (measured here: max caspase activation timepoint 1, at 16 µM, test 1, stronger effect = higher value) came to 19.1% and the max activity under setting [1] came to 127%.

For the compound `COc1ccc(N(C(=O)CCl)C(C(=O)NCCc2ccccc2)c2cccs2)cc1Cl` (stereo not drawn), the max activity (measured here: max caspase activation timepoint 2, at 0.0021 µM, test 2, stronger effect = higher value) was -18.4% and the max activity (measured here: max caspase activation timepoint 3, at 16 µM, test 3, stronger effect = higher value) was 323%.

As to `C#CCCCC(=O)NCCOCCOCCOc1ccc(N(C(=O)CCl)C(C(=O)NCCc2ccccc2)c2cccs2)cc1Cl` (stereo not drawn), under “measured here: max caspase activation timepoint 2, at 4.2 µM, test 2, stronger effect = higher value”, the max activity was -40.8%.

Take `CO[C@H]1C[C@@H]2CC[C@@H](C)[C@@](O)(O2)C(=O)C(=O)N2CCCC[C@H]2C(=O)O[C@H]([C@H](C)C[C@@H]2CC[C@@H](O)[C@H](OC)C2)CC(=O)[C@H](C)/C=C(\C)[C@@H](O)[C@@H](OC)C(=O)[C@H](C)C[C@H](C)/C=C/C=C/C=C/1C`: the max activity under setting [1] came out at 80.9%.
